Earlier results, collected in patent US10072029B2, “Crystalline form of a proteasome inhibitor” (Millennium Pharmaceuticals, Inc., priority 2015, dated 2018).
Counter-ions that a name gives are not always drawn. At least one compound was matched to its structure with a doubt left.

Tested on: advanced solid tumors, lymphoma, relapsed/refractory multiple myeloma (RRMM), amyloidosis
Conditions: patients with advanced solid tumors, amyloidosis or relapsed or refractory AL amyloidosis; cited from earlier work

CC(C)C[C@H](NC(=O)CNC(=O)c1cc(Cl)ccc1Cl)B1OC(=O)C(CC(=O)O)(CC(=O)O)O1 [Ixazomib citrate]
clinical activity: demonstrated signs of activity
